# Reference: the supplement of paper PMC12067093, “Discovery and optimisation of a covalent ligand for TRIM25 and its application to targeted protein ubiquitination” (Chemical Science, 2025)
# Protein sequences, listed by entry. Tags and fused reporters are not part of them. Lines headed by an entry give the natural chain unless they say otherwise; changes in a name come on top.
# UniProt Q29RF7: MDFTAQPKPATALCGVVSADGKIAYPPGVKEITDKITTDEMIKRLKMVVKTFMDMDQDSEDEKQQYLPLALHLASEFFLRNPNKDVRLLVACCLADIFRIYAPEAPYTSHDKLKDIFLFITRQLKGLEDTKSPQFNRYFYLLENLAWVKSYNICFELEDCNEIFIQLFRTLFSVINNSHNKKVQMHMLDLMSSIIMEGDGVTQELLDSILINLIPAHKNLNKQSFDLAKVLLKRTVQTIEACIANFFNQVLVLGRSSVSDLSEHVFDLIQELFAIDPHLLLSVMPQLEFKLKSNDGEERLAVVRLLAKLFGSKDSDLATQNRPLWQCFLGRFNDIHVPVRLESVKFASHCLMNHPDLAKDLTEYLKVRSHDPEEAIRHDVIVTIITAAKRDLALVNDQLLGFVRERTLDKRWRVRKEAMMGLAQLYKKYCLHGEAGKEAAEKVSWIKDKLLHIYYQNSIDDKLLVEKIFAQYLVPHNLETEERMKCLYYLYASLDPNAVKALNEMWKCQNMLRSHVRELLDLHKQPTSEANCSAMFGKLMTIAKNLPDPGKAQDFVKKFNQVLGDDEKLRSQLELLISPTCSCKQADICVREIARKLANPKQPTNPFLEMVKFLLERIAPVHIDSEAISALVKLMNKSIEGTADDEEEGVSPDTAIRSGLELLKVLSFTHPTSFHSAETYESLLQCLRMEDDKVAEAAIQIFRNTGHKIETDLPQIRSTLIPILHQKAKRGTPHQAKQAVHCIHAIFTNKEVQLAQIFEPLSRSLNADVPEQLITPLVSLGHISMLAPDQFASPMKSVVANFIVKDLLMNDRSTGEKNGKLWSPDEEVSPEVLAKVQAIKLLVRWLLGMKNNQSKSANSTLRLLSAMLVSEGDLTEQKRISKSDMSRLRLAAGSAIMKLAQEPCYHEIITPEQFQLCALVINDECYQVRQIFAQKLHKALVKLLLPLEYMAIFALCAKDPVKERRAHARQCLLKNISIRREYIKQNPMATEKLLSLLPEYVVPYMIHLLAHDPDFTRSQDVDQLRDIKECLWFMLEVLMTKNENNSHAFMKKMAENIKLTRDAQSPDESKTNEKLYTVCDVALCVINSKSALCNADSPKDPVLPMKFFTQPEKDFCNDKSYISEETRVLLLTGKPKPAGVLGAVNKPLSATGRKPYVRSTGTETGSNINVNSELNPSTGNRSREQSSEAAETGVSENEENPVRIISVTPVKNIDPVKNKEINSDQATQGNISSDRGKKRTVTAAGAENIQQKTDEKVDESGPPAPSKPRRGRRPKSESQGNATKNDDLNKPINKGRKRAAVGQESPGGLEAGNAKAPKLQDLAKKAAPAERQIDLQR
# UniProt Q8WUM4: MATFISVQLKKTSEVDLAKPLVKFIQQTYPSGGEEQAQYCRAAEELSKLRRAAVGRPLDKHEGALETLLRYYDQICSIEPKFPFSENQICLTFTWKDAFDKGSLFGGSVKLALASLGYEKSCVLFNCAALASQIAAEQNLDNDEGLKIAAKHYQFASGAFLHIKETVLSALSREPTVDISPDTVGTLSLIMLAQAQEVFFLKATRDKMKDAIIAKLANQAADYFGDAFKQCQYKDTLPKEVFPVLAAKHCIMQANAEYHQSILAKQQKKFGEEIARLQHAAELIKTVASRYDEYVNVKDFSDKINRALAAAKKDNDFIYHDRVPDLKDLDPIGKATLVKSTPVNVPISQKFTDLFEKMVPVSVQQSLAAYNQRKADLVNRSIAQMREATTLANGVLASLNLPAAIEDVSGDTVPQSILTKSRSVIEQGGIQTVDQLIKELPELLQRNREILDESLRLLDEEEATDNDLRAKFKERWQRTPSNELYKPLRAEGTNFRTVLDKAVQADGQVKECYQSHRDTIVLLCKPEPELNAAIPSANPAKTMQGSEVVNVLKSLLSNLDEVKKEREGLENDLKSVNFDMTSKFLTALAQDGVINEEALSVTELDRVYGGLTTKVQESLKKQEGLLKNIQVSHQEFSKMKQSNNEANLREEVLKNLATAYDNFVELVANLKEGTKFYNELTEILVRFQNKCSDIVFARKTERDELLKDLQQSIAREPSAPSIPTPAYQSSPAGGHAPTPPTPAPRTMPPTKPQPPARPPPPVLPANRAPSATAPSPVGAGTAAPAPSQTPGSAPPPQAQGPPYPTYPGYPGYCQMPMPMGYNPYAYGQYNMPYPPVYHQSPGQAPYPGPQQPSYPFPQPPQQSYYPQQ
# UniProt Q13371: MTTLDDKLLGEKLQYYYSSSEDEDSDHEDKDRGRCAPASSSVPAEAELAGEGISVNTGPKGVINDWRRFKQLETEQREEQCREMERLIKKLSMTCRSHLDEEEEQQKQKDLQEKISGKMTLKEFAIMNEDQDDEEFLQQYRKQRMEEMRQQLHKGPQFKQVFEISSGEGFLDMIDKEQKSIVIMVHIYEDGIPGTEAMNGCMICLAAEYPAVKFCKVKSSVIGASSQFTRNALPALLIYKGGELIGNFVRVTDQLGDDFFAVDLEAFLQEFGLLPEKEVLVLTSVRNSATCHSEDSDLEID
# UniProt P57721, whole entry, looked up: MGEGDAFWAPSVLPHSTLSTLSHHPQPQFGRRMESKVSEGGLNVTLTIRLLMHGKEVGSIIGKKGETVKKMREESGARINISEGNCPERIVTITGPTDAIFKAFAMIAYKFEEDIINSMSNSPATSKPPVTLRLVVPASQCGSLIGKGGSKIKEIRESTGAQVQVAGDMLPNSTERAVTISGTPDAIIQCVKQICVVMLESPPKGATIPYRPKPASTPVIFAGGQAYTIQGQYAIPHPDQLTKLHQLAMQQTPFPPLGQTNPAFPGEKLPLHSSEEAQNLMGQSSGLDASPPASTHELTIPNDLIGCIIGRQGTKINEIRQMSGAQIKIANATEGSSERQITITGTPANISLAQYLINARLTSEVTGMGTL
# Some of the results follow.
# Compound: CC1Cc2ccccc2N1C(=O)C1CCCN(C1)C(=O)CCl (mixture of isomers) [TRIM25 ligand 11 (diastereomer mixture)]
# Experiment: probe-labelled cysteine peptide fold change vs DMSO (competition) (log2 fold change); higher = less target engagement (more negative = stronger competition)
# Details: THP-1, incubation time: 4 h
# 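Note: competitive chemoproteomic profiling in live THP-1 cells with an iodoacetamide desthiobiotin (IA-DTB) probe, comparing probe-labelled peptide intensities in compound-treated cells against DMSO-treated controls.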
Target,probe-labelled cysteine peptide fold change (10 µM),probe-labelled cysteine peptide fold change (50 µM)
PDS5A_Q29RF7_1079_LYTVCDVALCVINSK (UniProt Q29RF7),-0.0956,0.000329
PDCD6IP_Q8WUM4_250_HCIMQANAEYHQSILAK (UniProt Q8WUM4),0.128,-0.0702
PDCL_Q13371_35_CAPASSSVPAEAELAGEGISVNTGPK (UniProt Q13371),-0.049,-0.328
PCBP3_P57721_86_INISEGNCPER (UniProt P57721),0.0565,-0.0133
